Source: paper PMC4698733
Numbering of substitutions follows the chain as printed. These are yes or no findings as the source states them, for the method shown. Some binding calls cover weakened binding; strength is not graded here. Where a sequence is shown, tags or fusion partners need not be part of it.

Sequences of proteins named here, by UniProt entry; tags and fusion partners are left off.
UniProt Q9DAK2: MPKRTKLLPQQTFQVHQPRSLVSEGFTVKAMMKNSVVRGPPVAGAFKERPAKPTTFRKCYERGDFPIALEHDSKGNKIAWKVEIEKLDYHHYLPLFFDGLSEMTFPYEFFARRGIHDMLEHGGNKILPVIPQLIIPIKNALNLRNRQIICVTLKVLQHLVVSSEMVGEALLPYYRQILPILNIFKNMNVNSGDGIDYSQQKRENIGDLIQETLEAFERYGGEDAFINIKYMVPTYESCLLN

Assays:
[1] = target: T1, MEIG1 W50A/Y68A double mutant, two-hybrid fusion from MEIG1/pGBKT7 (mouse) (UniProt Q61845); test: two-hybrid; AH109 co-transformed with PACRG/pGADT7 and wild-type or mutant MEIG1/pGBKT7; growth on drop-out medium lacking tryptophan, leucine and histidine (His3 reporter); empty pGADT7 as negative control
T1 sequence: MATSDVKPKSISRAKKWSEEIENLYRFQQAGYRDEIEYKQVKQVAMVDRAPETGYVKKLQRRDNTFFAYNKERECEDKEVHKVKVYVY

[2] = target: T2, MEIG1 K57E, two-hybrid fusion from MEIG1/pGBKT7 (mouse) (UniProt Q61845); test: as above
T2 sequence: T1 sequence with A50W, K57E, A68Y

[3] = target: T3, MEIG1 wild type, two-hybrid fusion from MEIG1/pGBKT7 (mouse) (UniProt Q61845); test: as above
T3 sequence: T1 sequence with A50W, A68Y

[4] = target: T4, MEIG1 W50A, two-hybrid fusion from MEIG1/pGBKT7 (mouse) (UniProt Q61845); test: as above
T4 sequence: T1 sequence with A68Y

[5] = target: T5, MEIG1 F66A, two-hybrid fusion from MEIG1/pGBKT7 (mouse) (UniProt Q61845); test: as above
T5 sequence: T1 sequence with A50W, F66A, A68Y

[6] = target: T1, MEIG1 W50A/Y68A double mutant, two-hybrid fusion from MEIG1/pGBKT7 (mouse); test: two-hybrid; AH109 co-transformed with PACRG/pGADT7 and wild-type or mutant MEIG1/pGBKT7; binding strength by alpha-galactosidase reporter activity in culture supernatant (PNP-alpha-Gal, 30 °C, 3 h, OD410); p53/pGBKT7 with large T antigen/pGADT7 as positive control
[7] = target: T2, MEIG1 K57E, two-hybrid fusion from MEIG1/pGBKT7 (mouse); test: as above
[8] = target: T3, MEIG1 wild type, two-hybrid fusion from MEIG1/pGBKT7 (mouse); test: as above
[9] = target: T4, MEIG1 W50A, two-hybrid fusion from MEIG1/pGBKT7 (mouse); test: as above
[10] = target: T5, MEIG1 F66A, two-hybrid fusion from MEIG1/pGBKT7 (mouse); test: as above

Measured: binding

Parkin co-regulated gene protein (PACRG), two-hybrid fusion from PACRG/pGADT7 (from UniProt Q9DAK2 1-241)
binds: all assays above
